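Viability assay of Plasmodium falciparum sporozoites; the read-out is not stated. The concentration is filed as 10 mM, unlikely as a test dose, so the dose is not known. The record gives no direction; compounds that gave an IC50 in retests scored well above the rest, so higher reads as lower viability. Strong results were mostly tested again. About 34,000 compounds were tested under these conditions; 0.84% (about 280) showed 50% or more at least once.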

Values are the deposited “Percent Effect”, in %.
How 0% and 100% were set is not recorded. Most values in the screen are low, and negative values occur.
The compounds are a random part of those screened.
Two or more numbers in one place are separate tests of the same structure; such repeats can differ widely.

With CCC(=O)NCC(c1ccc(SC)cc1)N1CCc2sccc2C1 (configuration not stated) the screen gave -10.65%.
With O=C(O)C(F)(F)F.O=C(O)C(F)(F)F.[H][C@@]12CCCO[C@]1([H])[C@H](N1CCCC1)CN(Cc1ccco1)C2 the screen gave -3.406%.
With CNc1cc(N2CCCC2CNCc2csc(C(C)C)n2)ncn1 (configuration not stated) the screen gave 6.464%.
With CC(C)c1nn(CC(=O)N2CCCCC2)c(=O)c2c1cnn2C(C)(C)C the screen gave -3.896%.
With CC(C)C(NC(=O)NCCNc1cnccn1)c1cccs1 (configuration not stated) the screen gave -3.513%.
With C[C@@H]1CN(CC(C)(C)N2CCCCC2)C[C@@]1(O)C1CC1 the screen gave 8.653%.
With O=C(O)C(F)(F)F.O=C(O)C(F)(F)F.c1cnc(N2CCOCC3(CCCN(CC4CC4)C3)C2)cn1 (configuration not stated) the screen gave -4.004%.
With Cc1ccccc1N1CCCN(C(=O)CCc2cccnc2)CC1 the screen gave 5.799%.
With CN1CCOC(CNCc2coc(-c3cccc(F)c3)n2)C1 (configuration not stated) the screen gave -3.327%.
With Cn1cc(C(=O)N2CCCC(Cc3nccs3)C2)cn1 (configuration not stated) the screen gave -16.73%.
With Cn1ccnc1CN1CCc2onc(COCC3CC3)c2C1.O=C(O)C(F)(F)F the screen gave -2.312%.
With CC(=O)Nc1cccc(Cn2nc(C)nc2C)c1 the screen gave -14.35%.
With O=C(O)C(F)(F)F.[H][C@@]12CN(C(=O)N(C)C)CCC[C@]1(C(=O)N(C)C)CN(c1ccccn1)C2 the screen gave 6.745%.
With CCN1CCC(N2CCC(C(=O)N(C)C)CC2)CC1.O=C(O)C(F)(F)F.O=C(O)C(F)(F)F the screen gave -4.024%.
With CC(O)C1CCN(C(=O)CCOc2ccccc2F)CC1 (configuration not stated) the screen gave -0.302% and 40.25% and 65%.
With Cc1ccc(CNC(=O)N2CCCCC2CCNS(C)(=O)=O)cc1 (configuration not stated) the screen gave -16.59%.
With Cc1nc(C)c(C(=O)N2CCc3nc4sc(C)cc4c(=O)n3CC2)o1 the screen gave -3.897%.
With NS(=O)(=O)c1ccc(NC(=O)CSc2ccc3c(c2)CCC3)cc1 the screen gave -2.255%.
With COCC1CCCCN1Cc1nc(-c2ccoc2)oc1C (configuration not stated) the screen gave -18.51%.
With O=C(O)C1CC2(CCN(c3nccc4ccccc34)CC2)CN1 (configuration not stated) the screen gave -4.154%.
With CC(C)Nc1n[nH]c2nc(C3CCN(C(=O)c4ccccn4)C3)ccc12 (configuration not stated) the screen gave 8.462%.
With O=C1N(c2ccsc2)CCC12CCCN(c1ccccn1)C2 (configuration not stated) the screen gave 0.8439%.
With O=C(c1ccccc1)C1CCN(c2cncc(-n3cccn3)n2)CC1 the screen gave 7.574%.
With O=c1n(CCn2cccc2)nc(C2CCNCC2)n1Cc1ccccc1 the screen gave -18.41%.
With Cc1ccc(-c2noc(CN3CCc4nn(C)c(=O)cc4C3)n2)cc1 the screen gave 0.4601%.
With O=C(COc1coc(CN2CCOCC2)cc1=O)c1ccc(Cl)cc1 the screen gave -1.015%.
With Cc1ccc(-n2c(SCC(=O)O)nnc2-c2cccc(C)c2)cc1 the screen gave 0.4648%.
With CC(=O)NCC1CCN(CC2CCOc3ccccc3C2)CC1 (configuration not stated) the screen gave -8.959%.
With COc1ccc(C(=O)C2CCCN(Cc3ccc(C)o3)C2)c(OC)c1 (configuration not stated) the screen gave 5.925%.
With O=C(c1cn(-c2ccccc2Cl)nn1)N1CCSCC1 the screen gave -17.97% and -41.49%.
With CC(C)N1CCC(CC(=O)NC(C(=O)O)c2cccc(F)c2)CC1 (configuration not stated) the screen gave 8.931%.
With Cc1n[nH]c(C2CN(Cc3csc(C4CCCC4)n3)CCO2)n1 (configuration not stated) the screen gave 0.7769%.
With O=C(O)C(F)(F)F.O=C(O)C(F)(F)F.O=C(O)C(F)(F)F.[H][C@]12C[C@H](C(=O)N3CCN(C)CC3)N(C)[C@@]1([H])CN(c1ncc(F)cn1)C2 the screen gave 10.66%.
With Cc1ccc2c(c1)C1(CCNCC1)CC2NCCO.Cl.Cl (configuration not stated) the screen gave -1.226%.
With CN1CCCC1CNC(=O)c1nnn(-c2ccc(F)cc2)c1C1CC1 (configuration not stated) the screen gave 0.6764%.
With CC(C)CCn1[nH]c(CNc2ccccc2)nc1=O the screen gave -7.779%.
With O=C(O)C(F)(F)F.[H][C@@]12COC[C@]1(CNC(=O)c1ccco1)CN(C1CCOCC1)C2 the screen gave -1.961%.
With CCc1nc2n(n1)CC(NCc1ccnc(-c3ccccc3)n1)CC2 (configuration not stated) the screen gave -2.2%.
With CN(C)CCN1C(=O)CCC12CCN(C(=O)CC1CC1)CC2 the screen gave -5.054%.
With Cc1ccc(CC2COCCN(Cc3ccccc3)C2)nc1 (configuration not stated) the screen gave -5.695%.
With CCc1cc(N(C)Cc2cc[nH]n2)n2nc(C)c(C)c2n1 the screen gave 15.23%.
With Cc1cnn(-c2ccc(S(=O)(=O)N(C)CC(F)F)cc2F)c1 the screen gave -19.64%.
With CNC(=O)CS(=O)(=O)Cc1cc(Cl)c2c(c1)OCCO2 the screen gave -1.873%.
With Cc1csc(N2CCC(CCN3CCCC3=O)CC2)n1 the screen gave -11.28%.
With CNc1ccnc(N2C[C@@H](C)[C@](O)(C3CCC3)C2)n1 the screen gave 0.1776%.
With O=C1C(N2CC[C@@H](O)C2)CCCN1Cc1cccc(C(F)(F)F)c1 (some centres not stated) the screen gave 3.402%.
With CC(C)c1noc(CN2CCN(C(=O)c3cccnc3O)CC2)n1 the screen gave 4.448%.
With CS(=O)(=O)NCc1ncn2c1CN(C(=O)CC1CCCC1)CCC2 the screen gave -2.796%.
With COc1ccc(CN(C)C(=O)CCC(=O)c2cccs2)c(OC)c1OC the screen gave -10.76%.
With COCC1CN(C(=O)Nc2cc(Br)ccc2F)CCO1 (configuration not stated) the screen gave -12.57%.
With CC(Cn1cccn1)NC(=O)N1CCN(Cc2ccncc2)CC1 (configuration not stated) the screen gave -1.803%.

6 of the entries, repeated:

SMILES	Percent Effect
CC(C)c1noc(CN2CCN(C(=O)c3cccnc3O)CC2)n1	4.448%
O=C(c1cn(-c2ccccc2Cl)nn1)N1CCSCC1	-17.97% and -41.49%
CC(C)Nc1n[nH]c2nc(C3CCN(C(=O)c4ccccn4)C3)ccc12 (configuration not stated)	8.462%
CS(=O)(=O)NCc1ncn2c1CN(C(=O)CC1CCCC1)CCC2	-2.796%
Cc1cnn(-c2ccc(S(=O)(=O)N(C)CC(F)F)cc2F)c1	-19.64%
CNc1cc(N2CCCC2CNCc2csc(C(C)C)n2)ncn1 (configuration not stated)	6.464%

The values are deposited in ChEMBL (CHEMBL3988442, “University of Dundee, Small-Polar-MMV Screening Library” (2021)).